# Results taken from patent publication US20260097122A1 (AUTOLUS, published 2026).
# Amino acid sequences for entries named in this document (tags omitted). Residues count along the entry.
# UniProt P20273, residues 20-687: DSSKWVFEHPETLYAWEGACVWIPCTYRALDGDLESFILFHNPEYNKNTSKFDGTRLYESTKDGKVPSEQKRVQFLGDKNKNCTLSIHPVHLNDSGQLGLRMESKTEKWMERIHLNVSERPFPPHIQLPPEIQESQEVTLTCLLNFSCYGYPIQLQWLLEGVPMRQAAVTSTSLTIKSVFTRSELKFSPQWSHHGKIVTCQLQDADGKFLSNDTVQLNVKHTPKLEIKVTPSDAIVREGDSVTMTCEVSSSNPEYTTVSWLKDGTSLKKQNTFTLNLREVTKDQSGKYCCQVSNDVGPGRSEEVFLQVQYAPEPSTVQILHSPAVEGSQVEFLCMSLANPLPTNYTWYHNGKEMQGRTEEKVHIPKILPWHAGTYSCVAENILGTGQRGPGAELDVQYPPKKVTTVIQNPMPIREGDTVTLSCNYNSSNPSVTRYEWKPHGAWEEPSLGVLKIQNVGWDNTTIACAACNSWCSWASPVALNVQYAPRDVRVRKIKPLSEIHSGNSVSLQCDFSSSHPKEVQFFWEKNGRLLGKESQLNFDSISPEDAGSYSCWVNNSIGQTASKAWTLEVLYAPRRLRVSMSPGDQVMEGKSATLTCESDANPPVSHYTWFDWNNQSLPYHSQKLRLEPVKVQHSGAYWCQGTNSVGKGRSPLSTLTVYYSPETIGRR
# These are yes or no findings as the source states them, for the method shown. Some entries that bind do so weakly or less than the wild type.
# Target: CD22 9A8CAR (aCD22_9A8-1-64_LH_scFv-CD8STK-41BBz)
# Test: flow cytometry of CAR T cells, product before injection and mouse bone marrow at day 14; 9A8CAR stained with soluble recombinant CD22 ectodomain [cont.) F]
substance,measurement,value
recombinant soluble CD22 ectodomain (from UniProt P20273 20-687) (receptor),binding,binds
